Assay results as given in article PMC3973678.
Construct, isoform or probe ends are uncertain for at least one entry. Where cells or extracts were used, other partners may take part. For part of these data: No signal at the amounts used counts as a negative. For part of these data: At least one verdict was read from the data and is not stated in words by the source.

What was measured:
[1] = biological target: PU/ER(T) fusion (PU.1 fused to modified estrogen receptor ligand binding domain) G525R (UniProt P17433); experiment: EMSA, supershift; details: 4-hydroxytamoxifen 100 nM; 5 ug nuclear extract, 6% native acrylamide gel, 0.5X TBE, chemiluminescent detection; binding buffer, pH and temperature not given; protein in an extract; protein details: ER LBD fusion; label: 5' biotin
[2] = biological target: PU/ER(T) fusion (PU.1 fused to modified estrogen receptor ligand binding domain) G525R (UniProt P17433); experiment: EMSA; details: 4-hydroxytamoxifen, binding completely abolished by CpG methylation; 5-methylcytosine at CpG dinucleotides (in vitro M.SssI + SAM); 5 ug nuclear extract, 6% native acrylamide gel, 0.5X TBE, chemiluminescent detection; binding buffer, pH and temperature not given; protein in an extract; protein details: ER LBD fusion; label: 5' biotin
[3] = biological target: PU/ER(T) fusion (PU.1 fused to modified estrogen receptor ligand binding domain) G525R (UniProt P17433); experiment: competition with a labelled probe; details: 5, 15, 25 and 100 pmol unlabelled oligo against labelled N1, extract source not stated for panel D; 5 ug nuclear extract, 6% native acrylamide gel, 0.5X TBE, chemiluminescent detection; binding buffer, pH and temperature not given; protein in an extract; protein details: ER LBD fusion

## CGCGCAGTGGGGGCTGCGGGAAGGCGGGGAGAAGAAAGGCAGGGGGCGGGGCCTGGCGGCGGAGCCCCGCGCGCCG (double strand) [KLF4 promoter 76 bp oligo (-118/-113 PU.1 element)]
[1]
  binding result: binds

## CGCGCAGTGGGGGCTGCGGGAAGGCGGGGAGAAGAAAGGCAGGGGGCGGGGCCTGGCGGCGGAGCCCCGCGCGCCG (double strand) [KLF4 promoter 76 bp oligo, M.SssI methylated]
[2]
  binding result: no binding

## CGCGCAGTGGGGGCTGCGGGAAGGCGGGGAGAAGAAAGGCAGGGGGCGGGGCCTGGCGGCGGAGCCCCGCGCGCCG (double strand) [unlabelled KLF4 promoter oligo (cold competitor)]
[3]
  binding result: binds
